No constants are given. Whether binding was seen depends on the method and setting. In cells and extracts the contact can be indirect. Some results given as binding are weak or reduced against the parent protein; the word gives no strength.

Protein sequences, listed by entry. Tags and fused reporters are not part of them.
UniProt Q9C005: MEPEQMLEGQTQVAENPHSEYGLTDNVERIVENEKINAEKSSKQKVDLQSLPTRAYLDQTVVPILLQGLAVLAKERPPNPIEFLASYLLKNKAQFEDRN
UniProt Q9UBL3: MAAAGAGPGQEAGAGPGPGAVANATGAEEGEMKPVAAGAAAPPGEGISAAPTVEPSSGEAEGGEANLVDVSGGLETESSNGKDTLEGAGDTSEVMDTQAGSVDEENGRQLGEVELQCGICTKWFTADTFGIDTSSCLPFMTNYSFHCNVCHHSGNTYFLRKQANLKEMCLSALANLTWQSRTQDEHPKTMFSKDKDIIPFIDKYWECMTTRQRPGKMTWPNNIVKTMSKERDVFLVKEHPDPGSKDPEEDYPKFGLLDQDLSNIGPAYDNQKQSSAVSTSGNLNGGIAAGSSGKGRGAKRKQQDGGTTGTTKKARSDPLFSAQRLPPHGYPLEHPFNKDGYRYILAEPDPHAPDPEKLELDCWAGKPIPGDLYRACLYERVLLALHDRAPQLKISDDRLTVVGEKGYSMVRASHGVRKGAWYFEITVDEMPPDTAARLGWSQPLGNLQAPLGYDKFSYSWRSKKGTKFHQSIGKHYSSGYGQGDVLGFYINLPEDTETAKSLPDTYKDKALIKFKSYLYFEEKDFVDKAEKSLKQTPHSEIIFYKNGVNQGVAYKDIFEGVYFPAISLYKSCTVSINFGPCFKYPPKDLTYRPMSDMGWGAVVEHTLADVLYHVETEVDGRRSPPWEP

In assay [1] the target is Estrogen receptor alpha (ERα), endogenous (human (endogenous in MCF7 and T47D)) (UniProt P03372). The experiment in a line: co-IP; endogenous proteins in T47D cells carrying control shRNA or shBAP18; immunoprecipitated with anti-ERα or IgG; blots with antibodies against COMPASS-like core proteins, BAP18 and ERα.
Assay [2] has the same target. The experiment in a line: co-IP; endogenous proteins in MCF7 cells (Figure 3C, D).
Assay [3] has the same target. The experiment in a line: co-IP; endogenous BAP18 and ERα in T47D cells with depletion of each COMPASS-like core protein (WDR5, ASH2L, DPY30); precipitating antibody not stated.

Turning to “DPY30, endogenous (from UniProt Q9C005 1-99)”, the binding result in assay [1] was “binds”.

Take “BAP18, endogenous (from UniProt Q8IXM2 1-172)”: the binding result in assay [1], in assay [2] and in assay [3] was “binds” throughout.

With “ASH2L, endogenous (from UniProt Q9UBL3 1-628)”, the binding entry in assay [1] was “binds”.

For the origin of these results see publication PMC7641737.
